In all, about 53,000 sequences went through this assay and about 3,700 (7%) were called active.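 The calls were made as follows: active = gene knockdowns whose robust z-score for IL-1 alpha signal is at least 2 or at most -2, so actives lie on both sides; inactive = the rest.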 Some of the results follow.

Drawing on PubChem BioAssay AID1508600 (Functional Genomics Laboratory (NCATS/FGL), 2020), this text covers z-score for 106 sequences.

The nature of the test: Components of the Cytosolic LPS Sensing Pathway: Gene Identification via Genome-wide siRNA Screen.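 Also: robust z of the log signal after scaling to non-targeting control siRNA wells of the plate.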 The conditions noted are these: RAW264.7 macrophages, IL-1a HTRF, actives lie on both sides, screened at 100 nM (by protocol), cells primed 5 h with Pam3CSK4 first. In outline: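 Cells (RAW264.7, 1×10^4 per well) were transfected with siRNA at 100 nM and cultured 48h at 37 degrees C. Pam3CSK4 was added for 5 hours; LipidA transfection followed for 24 hour. IL-1a was then measured by HTRF.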
Background: TR-FRET usually uses a lanthanide donor and a delayed reading to cut background.
Take GCGGUGUAAACAGAUGGAGTT against Atg3: the z-score is inactive: 0.889.
Turning to GGAUACCACUUCAUCACCCTT against Gm9801, the z-score was inactive: -0.56.
Next, GGACUUGAACAACUUACAATT against Plcb1: active: 2.37; GGCCUUCUCUGACUUUCUGTT against Zfp324: inactive: -0.633; GGAAGUUUGCUCCAGCCUUTT against Tmem33: inactive: -0.202.
In the case of GCCUGACCGACUCAACUACTT against Dbh, the z-score is inactive: 0.354.
GCACCAUCGCUUUGUUAUUTT against Hdlbp: the z-score is inactive: 1.19.
Turning to CCCUAACAAACCCUAUUAUTT against Kdm6b, the z-score was inactive: -1.49.
As to GUAAAGGUCUUGAUAGCCUTT against Tcl1b2, the z-score was inactive: 0.0799.
Next, CCAAAGUUAUUGCAUGCACTT against Kcna4: inactive: 1.25; CCCGAACCUGUUGUCUGAATT against Ttc8: inactive: -0.422; GGAACUCACGCACAUAUUUTT against Net1: inactive: -0.483.
With GGAGUCGUUUUCUGUUACUTT against Gemin5, the z-score is inactive: -0.22.
GGAAAGAAGAAGAGGUGAGTT against Pecr: the z-score was inactive: 1.41.
With CGGAAUGCCAAAGAUGUGGTT against Sult1d1, the z-score was inactive: -0.872.
On to CCGUACUCUACCUCCACAATT against Flrt2, for which the z-score was inactive: -1.19.
Take GGAAGCUUCUUCAGUACAATT against Rai14: the z-score was inactive: 0.639.
For GGGUUCAUUUUUGGCUUUCTT against Serpina3m, the z-score was inactive: 0.0735.
Turning to GGCUAUGAGAAAUACACUCTT against Zfp35, the z-score was inactive: -0.591.
For the sequence GGACUCAGCAUCGUGAUACTT against Krtap15, the z-score is inactive: -0.972.
As for GCGGUUUGUGUUGAUCUUGTT against Olfr768, the figure is inactive: 0.572; as for GCACUUACGCAGGCAUUUUTT against Apoc2, inactive: -0.721.
As for GGAGAGUCUCCAGACUUUGTT against Med29, the figure is inactive: -0.521.
On to CCUAAAACUCCUCUAUCUUTT against Lrriq3, for which the z-score is inactive: 1.62.
On to GGAUGAAGAGAAAAAUUGATT against Slc20a1, for which the z-score was inactive: -0.328.
As for GCGGUUAUAAUGGGACCAUTT against Kif15, the figure is active: 3.21.
Take GCUUUUGACGAGCAAGCAGTT against Eme1: the z-score is inactive: 1.47.
Next, GCUAAAAAGCCGAAUUCUATT against a: inactive: -0.00453; “CCGUGCCAAACUUCUUACUTT against 2610528J11Rik”: inactive: -0.1.
Next, GCAUUUCUACUGGAUUGUGTT against Luc7l2: inactive: 0.0609; GCUAUUGAAACUUAUGAGUTT against Srsf11: inactive: -1.68.
Take GGCAGGUUCAUUGAGGUUCTT against Ogfod3: the z-score is inactive: 1.26.
Next, GCUGUACGAGAAUAAGAAGTT against Impact: inactive: -0.53; GGUUGUGGAUCAUUAUGAATT against Iscu: inactive: -1.21.
Turning to CGGAUAUUAUUGUUUGGAATT against Nlrp9a, the z-score is inactive: 0.407.
Next, GGUUGGAAUGCACACGAAATT against Tmem184c: inactive: 0.564; GCUUCCUAGAUCAUGACUGTT against Ube2g2: inactive: -0.318; GGGUUUGACAACUUGACCUTT against Stradb: inactive: -1.04.
Take GCACGUGAACAACUCCAACTT against Ccdc144b: the z-score is inactive: 0.28.
On to GGUAGUGCAAGUGUUCCGCTT against Kcns1, for which the z-score is inactive: -0.467.
Next, CCAGAGCGAGUACAUUGCATT against Xpnpep1: inactive: -0.478.
Next, GCCUCUACAAGCCAACAUGTT against Pdgfc: inactive: 0.874; AGCUCACAUCGUACUGAAGTT against Ctag2: inactive: -0.689; GCUACUCCAAUAAACGACATT against Glod5: inactive: 0.678.
For the sequence GGAAGACUGUUUUGAGUACTT against Brat1, the z-score was inactive: 1.55.
As to GGAAAAGACAUCAUUGUGCTT against Olfr914, the z-score is inactive: -1.38.
Next, GCCUGAAAAGUUUAAACUCTT against Nlrp9b: inactive: -0.256; GGGAUAAAGAUGAAGAACUTT against Tmem167b: inactive: 1.31; GGAGAGAAAUCCAAAACCCTT against Arf6: inactive: -1.23.
For the sequence GGAAAAUCAAGACCUAUGGTT against Obox6, the z-score is inactive: -1.37.
As for GAACCUAAAGUCAUACUUGTT against Bcl2a1c, the figure is inactive: 0.375.
On to GGAAGUCAAGCAAAAGUUUTT against Hsd17b7, for which the z-score was inactive: -0.516.
With GGGCAGGGAGAAAAAAAAATT against Cxcl17, the z-score was inactive: -1.3.
For GGCAGAAGGAACAAGAGAATT against Cd209b, the z-score is inactive: -0.504.
In the case of GGCACUUAUUUCUGUGUUCTT against Trav13-5, the z-score is inactive: 0.759.
GGAGUUACUGACUAAGAACTT against Prl7a1: the z-score was inactive: -0.625.
Consider GGAGCAACAGAAAAAGUGATT against Bsdc1, for which the z-score is inactive: -0.892.
In the case of GGAGGAGCUUUACACGGUUTT against Synrg, the z-score was inactive: 1.3.
As for GAUGGAUCGAACUCUGCACTT against Stard10, the figure is inactive: -0.957.
Next, GGGAUGCAUUUCUCAAAUCTT against Olfr731: inactive: -1.26.
As for GGAACAGCCUGUCAUUGAATT against Scn1a, the figure is inactive: -1.14; as for UGCUUUCAUUCUAACAAGCTT against Olfr926, inactive: -0.429.
On to CGUAGAUCUGGAUUGCUUUTT against Poli, for which the z-score was inactive: 1.74.
Consider GGUCAACAUGGAGAAGUACTT against Sp100, for which the z-score was inactive: -0.297.
As for CGUGCUGACUCAUAACCUGTT against Dync1li2, the figure is inactive: 0.12; as for GGUCUCCAAGGAAAAUGAGTT against H2-Q2, inactive: 0.797.
Next, GGGAGCAUCACCUCUAUCUTT against Plaat5: inactive: -0.18.
As for CCUAAUGAUAGAGGAGCUGTT against Myoz3, the figure is inactive: 0.203.
GGGAGAAAAAGCCCGGUGATT against Slc22a18: the z-score was inactive: -0.919.
As for GCAUACCAGUCUCAUCGCATT against Ipo5, the figure is inactive: -0.0861; as for GGAGCAAAAAUUCUCCCAUTT against Il18rap, inactive: -1.32.
As for GGCCAUGAUGGCUUUUACUTT against Serpinf2, the figure is inactive: -0.652; as for GGAAACCAGACUUUCCCUATT against Vmn1r43, inactive: -0.18; as for GGUUCCUGAGUCCUGAAUUTT against Mrpl19, inactive: -0.196.
As for CCUAAGUAAGAUGACAUUUTT against Slc35f5, the figure is inactive: -0.861; as for GGUCUUCUACAGGAGCAAATT against Bco1, inactive: 1.47.
Take CCAAAUAGCAGUAUCAGGATT against Mavs: the z-score is inactive: -0.142.
For the sequence CCCGGUGCAGGAAUUCAACTT against Trmt1, the z-score is inactive: 1.29.
On to GGAGAGUCCACUAAUACUGTT against Dmrt3, for which the z-score is inactive: 0.217.
As for GGGUACCUCCCUGAGAUAUTT against Tyrobp, the figure is inactive: 0.517; as for CCAGCACGCUGAAGUCUGATT against Adam19, inactive: 1.21; as for GGAGUGAUGUGCAAUACUUTT against Pgam1, inactive: 0.494.
Next, GGAUGACCAAUCAAUCAGGTT against Mylk: inactive: 0.16; CCUAAUCCUGAUAAUUCCATT against Niban2: inactive: -1.54.
Turning to CGAUAAUUGGCUAAACAGATT against Hook3, the z-score is inactive: -0.504.
As to GGAUAUCCAUAGAAUGUAATT against Perm1, the z-score was inactive: -1.03.
Next, GCAAAGACGAAAUGCCGAGTT against Ttc32: inactive: -0.23; GGAUUUAGUUGAAGCCUUCTT against Apol10a: inactive: -0.586.
As for GGCAUCAAUAAUGGAAUCATT against Sbsn, the figure is inactive: -0.00275.
Next, CCACUGAACUUAACCUUGGTT against Fndc10: inactive: -1.16; GCUAAUGACUUCUUCAGACTT against Slc25a22: inactive: 1.75; GGAUCCUAAUGAGGACAUUTT against Jchain: active: 2.75.
With GGAAUCUGUUGAACAUAUCTT against Csn2, the z-score was inactive: 1.28.
GGACCUGAAGAAAUAUUUCTT against Cdk5: the z-score is inactive: -1.18.
As for GCCAAACGCAUCAUGGAAATT against Arglu1, the figure is inactive: -0.59; as for “GGAAAGAGAUGAGAAUUUUTT against 4930447C04Rik”, inactive: -0.275.
As for UCACCCUGUUCGUAAUCAUTT against Olfr467, the figure is inactive: -0.17; as for GGAGUGUUGAAGAAUAAGATT against St3gal6, inactive: 0.68; as for CCUAGAUGUUUGUUUGGCUTT against Antxr2, inactive: -0.0859.
CGUGCAUGUGUAAGUCAGGTT against Hpvc2: the z-score is inactive: 0.68.
Next, CGAAUGUGUGAGAGAACAUTT against Zfp322a: inactive: -0.492; GGAAGAAAUGAUAUUCUCATT against Nek11: inactive: -0.518.
Next, GGUGACCUCACAUUUGACUTT against Dpagt1: inactive: 0.297; GGUAUAUGUCACAAUGCAUTT against Farsa: inactive: 0.759; GCAAGGAGACCGAUAUCAATT against Huwe1: inactive: 0.167.
As for GGGCAGGGACAUUAGUCAUTT against Zfp106, the figure is active: 2.88.
